These are yes or no findings as the source states them, for the method shown. Tags and fused reporters may be left off the sequences shown.
Target: T1, N-terminal Protein-A tagged Esc2-D430R (S. cerevisiae) (UniProt Q06340)
T1 sequence: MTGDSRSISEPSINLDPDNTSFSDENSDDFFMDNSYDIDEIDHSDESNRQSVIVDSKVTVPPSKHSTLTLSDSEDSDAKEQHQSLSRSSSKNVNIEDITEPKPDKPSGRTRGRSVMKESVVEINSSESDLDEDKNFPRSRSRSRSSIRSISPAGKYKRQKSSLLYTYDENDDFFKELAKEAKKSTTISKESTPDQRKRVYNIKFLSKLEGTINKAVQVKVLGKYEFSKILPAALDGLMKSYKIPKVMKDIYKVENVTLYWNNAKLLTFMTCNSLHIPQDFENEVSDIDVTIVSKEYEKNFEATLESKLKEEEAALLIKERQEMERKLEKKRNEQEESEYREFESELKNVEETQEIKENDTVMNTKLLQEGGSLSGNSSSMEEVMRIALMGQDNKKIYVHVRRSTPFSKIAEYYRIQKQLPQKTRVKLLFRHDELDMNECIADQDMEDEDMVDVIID
Assay: condition: 100 μg of purified Ubc9 in a final volume of 200 μL; pull-down; 40 ug Protein-A-Esc2 (WT or D430R) bound to 20 uL IgG resin, incubated with 100 ug purified Ubc9 in 200 uL for 2 hours on ice; washed 5 times with PBS with 0.2% NP-40; bound Ubc9 eluted and seen by Coomassie staining; both purified

binding: no binding
B1: C-terminal 6xHIS tagged Ubc9 (enzyme, S. cerevisiae, UniProt P50623 1-157, looked up)
chain: MSSLCLQRLQEERKKWRKDHPFGFYAKPVKKADGSMDLQKWEAGIPGKEGTNWAGGVYPITVEYPNEYPSKPPKVKFPAGFYHPNVYPSGTICLSILNEDQDWRPAITLKQIVLGVQDLLDSPNPNSPAQEPAWRSFSRNKAEYDKKVLLQAKQYSK
notes: Ubc9, SUMO E2 conjugating enzyme, S. cerevisiae; also called Ubc9 SUMO conjugating enzyme; E2

— publication PMC7891725, “Shared and distinct roles of Esc2 and Mms21 in suppressing genome rearrangements and regulating intracellular sumoylation” (PLoS ONE, 2021)
